From paper PMC5772480, “Galectin-13, a different prototype galectin, does not bind β-galacto-sides and forms dimers via intermolecular disulfide bridges between Cys-136 and Cys-138” (Scientific Reports, 2018)
No constants are given. Whether binding was seen depends on the method and setting. Some entries that bind do so weakly or less than the wild type.

Biological target: T1, Galectin-13 (wild type) (human), Q9UHV8
T1 chain: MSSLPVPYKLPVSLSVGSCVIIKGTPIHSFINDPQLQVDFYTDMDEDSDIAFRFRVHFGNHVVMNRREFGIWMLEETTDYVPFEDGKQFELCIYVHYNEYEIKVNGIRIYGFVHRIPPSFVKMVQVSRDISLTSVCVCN
Assay: crystal structure; Gal-13 crystals from 0.1 M Tris-HCl pH 8.5, 0.05 M lactose, 0.2 M MgCl2, 30% PEG 4000, room temperature; one molecule in the asymmetric unit, homodimer with twofold symmetry; both purified
Conditions: remark: other sources report otherwise

B1: Galectin-13 (wild type), Q9UHV8 1-139 (natural protein)
chain: T1 chain
modifications: here or on the partner: intermolecular disulfide bonds Cys136-Cys138' and Cys138-Cys136' in the dimer; intermolecular disulfide bonds Cys136-Cys138' and Cys138-Cys136' in the dimer
binding: binds
